For assay [1], the system named is ReNCell VM. In words: neuronal differentiation score (DCX+ cell fraction vs untreated, manual image score) (score (-3 to 3)); higher = more neuronal differentiation. The settings on record: 2 uM, 2 weeks.
In assay [2] the test system is ReNCell VM. In words: dopaminergic neuron differentiation score (TH+ cell fraction vs untreated, manual image score) (score (0 to 3)); higher = more TH+ dopaminergic neuron differentiation. The settings on record: 2 uM, 4 weeks, BDNF 10 ng/ml + GDNF 10 ng/ml.

Molecules are shown by their SMILES. Structures can show the parent of a compound that is named as a salt. This is one part of the list. Single values are uncertain here, since repeats match poorly.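 ReNCell VM, a human fetal ventral-midbrain neural progenitor line, was differentiated without mitogens. Blinded raters scored images stained for doublecortin (early neurons) or tyrosine hydroxylase (dopaminergic neurons) against untreated wells (0 = no change). Scores were averaged across repeats and both raters, and compounds averaging 2 or more were selected as hits for retesting.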

For the molecule `O=C(/C=C/c1c(C(=O)O)[nH]c2cc(Cl)cc(Cl)c12)Nc1ccccc1` [Gavestinel], the neuronal differentiation score in the assay with ReNCell VM [1] (library: Tocriscreen) is inactive: 0. Besides, the “dopaminergic neuron differentiation score” value in the assay on ReNCell VM [2] (library: Tocriscreen) was inactive: 0.
Turning to `Ic1ccc(N2CCN(Cc3c[nH]c4ncccc34)CC2)cc1` [L-750,667 trihydrochloride], the neuronal differentiation score with ReNCell VM [1] (library: LOPAC) was inactive: 0. Moreover, the “dopaminergic neuron differentiation score” value in the assay with ReNCell VM [2] (library: LOPAC) is inactive: 0.
Turning to `O=C(O)C1=C(CSc2nnnn2CS(=O)(=O)O)CS[C@@H]2[C@H](NC(=O)[C@H](O)c3ccccc3)C(=O)N12`, the neuronal differentiation score with ReNCell VM [1] (library: Spectrum) is inactive: 0. Further, the “dopaminergic neuron differentiation score” value in the assay on ReNCell VM [2] (library: Spectrum) is inactive: 0.
On to `CC(=O)[C@@]1(O)CC[C@H]2[C@@H]3C[C@H](C)C4=CC(=O)C=C[C@]4(C)[C@@]3(F)[C@@H](O)C[C@@]21C`, for which the neuronal differentiation score in the assay with ReNCell VM [1] (library: Spectrum) was inactive: 0. For the same molecule, in the assay with ReNCell VM [2] (library: Spectrum), the “dopaminergic neuron differentiation score” value is inactive: 0.
With `C[C@H](CCC(=O)O)[C@H]1CC[C@H]2[C@@H]3C(=O)C[C@@H]4CC(=O)CC[C@]4(C)[C@H]3CC(=O)[C@]12C` [Dehydrocholic acid], the neuronal differentiation score with ReNCell VM [1] (library: Prestwick) is inactive: 0. For the same molecule, the “dopaminergic neuron differentiation score” value in the assay on ReNCell VM [2] (library: Prestwick) was inactive: 0.
Regarding `NC(N)=Nc1ccc(Cl)cc1` [4-Chlorophenylguanidine hydrochloride], in the assay with ReNCell VM [1] (library: Tocriscreen), the neuronal differentiation score is inactive: 0. Moreover, the “dopaminergic neuron differentiation score” value in the assay with ReNCell VM [2] (library: Tocriscreen) is inactive: 0.
In the case of `C=C1C[C@]23C[C@@]1(O)CC[C@H]2[C@@]12C=C[C@H](O)[C@@](C)(C(=O)O1)[C@H]2[C@@H]3C(=O)O` [gibberellic acid], the neuronal differentiation score with ReNCell VM [1] (library: Natural) was inactive: 0. Moreover, the “dopaminergic neuron differentiation score” value in the assay with ReNCell VM [2] (library: Natural) was inactive: 0.
In the case of `OC[C@H]1O[C@@H](O[C@@H]2[C@@H](CO)OC(O)(CO)[C@H]2O)[C@H](O)[C@@H](O)[C@H]1O` (mixture of isomers), the neuronal differentiation score in the assay with ReNCell VM [1] (library: Spectrum) is inactive: 0. For the same molecule, the “dopaminergic neuron differentiation score” value in the assay on ReNCell VM [2] (library: Spectrum) is inactive: 1.
On to `Cc1cn[nH]c1` [4-Methylpyrazole hydrochloride], for which the neuronal differentiation score in the assay with ReNCell VM [1] (library: LOPAC) was inactive: 0. For the same molecule, the “dopaminergic neuron differentiation score” value in the assay on ReNCell VM [2] (library: LOPAC) is inactive: 0.
Regarding `COc1ncnc(NS(=O)(=O)c2ccc(N)cc2)c1OC`, in the assay with ReNCell VM [1] (library: Spectrum), the neuronal differentiation score is inactive: 0. Moreover, the “dopaminergic neuron differentiation score” value in the assay on ReNCell VM [2] (library: Spectrum) is inactive: 0.
Take `O=C(O)/C=C/C(=O)O`: the neuronal differentiation score with ReNCell VM [1] (library: Spectrum) is inactive: 0. Further, in the assay with ReNCell VM [2] (library: Spectrum), the “dopaminergic neuron differentiation score” value is inactive: 0.
On to `c1cnc2c(c1)ccc1cccnc12` [1,10-Phenanthroline monohydrate], for which the neuronal differentiation score with ReNCell VM [1] (library: LOPAC) was inactive: 0. Besides, the “dopaminergic neuron differentiation score” value with ReNCell VM [2] (library: LOPAC) is inactive: 0.
In the case of `N[C@H](CO)C(=O)O` [D-Serine], in the assay on ReNCell VM [1] (library: LOPAC), the neuronal differentiation score is inactive: 0. Further, the “dopaminergic neuron differentiation score” value with ReNCell VM [2] (library: LOPAC) was inactive: 0.
Regarding `C#C[C@]1(O)CC[C@H]2[C@@H]3CCC4=CC(=O)CC[C@@H]4[C@H]3CC[C@@]21CC` [Norgestrel-(-)-D], in the assay with ReNCell VM [1] (library: Prestwick), the neuronal differentiation score is inactive: 0. For the same molecule, the “dopaminergic neuron differentiation score” value with ReNCell VM [2] (library: Prestwick) was inactive: 0.
For `CC(=O)Oc1ccc(O)cc1`, the neuronal differentiation score with ReNCell VM [1] (library: Spectrum) was inactive: 0. Besides, the “dopaminergic neuron differentiation score” value in the assay with ReNCell VM [2] (library: Spectrum) was inactive: 0.
As for `CN1CCC(=C2c3ccccc3CC(=O)c3sccc32)CC1`, the neuronal differentiation score in the assay with ReNCell VM [1] (library: Spectrum) is inactive: 0. For the same molecule, in the assay with ReNCell VM [2] (library: Spectrum), the “dopaminergic neuron differentiation score” value was inactive: 0.
As for `C=CC[C@H](N)C(=O)O` [L-allylglycine], the neuronal differentiation score in the assay with ReNCell VM [1] (library: LOPAC) is inactive: 0. Besides, the “dopaminergic neuron differentiation score” value in the assay with ReNCell VM [2] (library: LOPAC) was inactive: 0.
On to `O=C(NC(Cc1cc(=O)[nH]c2ccccc12)C(=O)O)c1ccc(Cl)cc1` (centres undefined), for which the neuronal differentiation score in the assay with ReNCell VM [1] (library: Spectrum) was inactive: 0. In addition, the “dopaminergic neuron differentiation score” value with ReNCell VM [2] (library: Spectrum) was inactive: 0.
For `Cc1c(NC(C)C)c(=O)n(-c2ccccc2)n1C` [Isopyrin hydrochloride], the neuronal differentiation score in the assay with ReNCell VM [1] (library: Prestwick) was inactive: 0. In the assay on ReNCell VM [2] (library: Prestwick), the “dopaminergic neuron differentiation score” value is inactive: 0.
On to `CS(=O)(=O)c1ccc(C2=C(c3ccccc3)C(=O)OC2)cc1`, for which, in the assay on ReNCell VM [1] (library: Spectrum), the neuronal differentiation score was inactive: 0. In addition, the “dopaminergic neuron differentiation score” value with ReNCell VM [2] (library: Spectrum) was inactive: 0.
With `CC1(C)S[C@@H]2[C@H](NC(=O)Cc3ccccc3)C(=O)N2[C@H]1C(=O)O`, the neuronal differentiation score in the assay on ReNCell VM [1] (library: Spectrum) was inactive: 0. Also, the “dopaminergic neuron differentiation score” value in the assay with ReNCell VM [2] (library: Spectrum) is inactive: 0.
For `CC(=O)O[C@H]1C[C@@H]2CC[C@@H]3[C@H](CC[C@@]4(C)[C@H]3C[C@H]([N+]3(C)CCCCC3)[C@@H]4OC(C)=O)[C@@]2(C)C[C@@H]1N1CCCCC1`, the neuronal differentiation score in the assay on ReNCell VM [1] (library: Spectrum) is inactive: 0. The “dopaminergic neuron differentiation score” value in the assay with ReNCell VM [2] (library: Spectrum) was inactive: 0.
On to `COc1cc(NS(=O)(=O)c2ccc(N)cc2)nc(OC)n1`, for which the neuronal differentiation score in the assay on ReNCell VM [1] (library: Spectrum) was inactive: 0. Further, in the assay with ReNCell VM [2] (library: Spectrum), the “dopaminergic neuron differentiation score” value was inactive: 0.
As to `COc1cc(C(=O)OCCCN2CCCN(CCCOC(=O)c3cc(OC)c(OC)c(OC)c3)CC2)cc(OC)c1OC` [Dilazep hydrochloride], the neuronal differentiation score in the assay on ReNCell VM [1] (library: LOPAC) was inactive: 1. In addition, the “dopaminergic neuron differentiation score” value in the assay with ReNCell VM [2] (library: LOPAC) is inactive: 0.
Take `COc1cc2cc(Oc3ccc4ccc(=O)oc4c3)c(=O)oc2cc1O` [daphnoretin]: in the assay with ReNCell VM [1] (library: Natural), the neuronal differentiation score is inactive: 0. The “dopaminergic neuron differentiation score” value in the assay on ReNCell VM [2] (library: Natural) is inactive: 0.
For `O=C1C=C(O)c2ccccc2C1=O` [2-hydroxy-1,4-naphthoquinone], in the assay on ReNCell VM [1] (library: Natural), the neuronal differentiation score was inactive: 1. In addition, the “dopaminergic neuron differentiation score” value in the assay on ReNCell VM [2] (library: Natural) is inactive: 0.
For `COc1ccc2c(c1)C(=O)N(CCc1ccc(S(=O)(=O)NC(=O)NC3CCCCC3)cc1)C(=O)C2(C)C` [Gliquidone], the neuronal differentiation score in the assay with ReNCell VM [1] (library: Prestwick) is inactive: 0. For the same molecule, the “dopaminergic neuron differentiation score” value with ReNCell VM [2] (library: Prestwick) was inactive: 0.
For `N=C(N)c1ccc(N=NNc2ccc(C(=N)N)cc2)cc1`, in the assay with ReNCell VM [1] (library: Spectrum), the neuronal differentiation score was inactive: 0. Besides, the “dopaminergic neuron differentiation score” value in the assay with ReNCell VM [2] (library: Spectrum) was inactive: 0.
Consider `CN1CCCN=C1/C=C/c1cccc(O)c1` [Oxantel pamoate], for which, in the assay on ReNCell VM [1] (library: Prestwick), the neuronal differentiation score was inactive: 0. Moreover, the “dopaminergic neuron differentiation score” value in the assay with ReNCell VM [2] (library: Prestwick) is inactive: 0.
Consider `CN(C)C(=O)C(CCN1CCC(O)(c2ccc(Cl)cc2)CC1)(c1ccccc1)c1ccccc1`, for which the neuronal differentiation score in the assay on ReNCell VM [1] (library: Spectrum) was inactive: 0. For the same molecule, the “dopaminergic neuron differentiation score” value in the assay on ReNCell VM [2] (library: Spectrum) was inactive: 0.
Regarding `CCCN(CCC)CCc1cccc2c1CC(=O)N2` [Ropinirole HCl], the neuronal differentiation score in the assay on ReNCell VM [1] (library: Prestwick) is inactive: 0. Also, the “dopaminergic neuron differentiation score” value with ReNCell VM [2] (library: Prestwick) is inactive: 1.
For `Cc1c(Cl)cccc1Nc1ncccc1C(=O)O` [Clonixin Lysinate], in that order: inactive: 0 and inactive: 0.

The record behind these values is the supplement of paper PMC4635364.
